No constants are given. Whether binding was seen depends on the method and setting. For part of these data: Binding can be weak; no strength is given. Where a sequence is shown, tags or fusion partners need not be part of it.
How the values were obtained:
Assay in all cases: pull-down; GST pull-down in vitro; GST-tagged PAPC constructs as bait, Myc-tagged β-TrCP detected by Western blot; all proteins expressed in Xenopus embryos and purified for the analyses; both purified
[1] = molecular target: Cytoplasmic domain of PAPC tagged with GST (Xenopus laevis)
[2] = molecular target: Cytoplasmic domain of PAPC tagged with GST, phosphorylation-mimic mutant (Xenopus laevis)
[3] = molecular target: Cytoplasmic domain of PAPC tagged with GST, non-phosphorylated mutant (Xenopus laevis)

binding [1]: binds | binding [2]: binds | binding [3]: no binding
B1: Myc-tagged β-TrCP (protein, UniProt Q91854 1-518)
chain: MEGFSCSLQPPTASEREDCNRDEPPRKIITEKNTLRQTKLANGTSSMIVPKQRKLSANYEKEKELCVKYFEQWSECDQVEFVEHLISRMCHYQHGHINTYLKPMLQRDFITALPARGLDHIAENILSYLDAKSLCSAELVCKEWYRVTSDGMLWKKLIERMVRTDSLWRGLAERRGWGQYLFKNKPPDGKTPPNSFYRALYPKIIQDIETIESNWRCGRHSLQRIHCRSETSKGVYCLQYDDQKIVSGLRDNTIKIWDKNTLECKRVLMGHTGSVLCLQYDERVIITGSSDSTVRVWDVNTGEMLNTLIHHCEAVLHLRFNNGMMVTCSKDRSIAVWDMASATDITLRRVLVGHRAAVNVVDFDDKYIVSASGDRTIKVWNTSTCEFVRTLNGHKRGIACLQYRDRLVVSGSSDNTIRLWDIECGACLRVLEGHEELVRCIRFDNKRIVSGAYDGKIKVWDLVAALDPRAPAGTLCLRTLVEHSGRVFRLQFDEFQIVSSSHDDTILIWDFLNDPGLA

Source: paper PMC4291225
